The values that follow come from the supplement of paper PMC8551327.

Each structure is given as a SMILES string. Counter-ions that a name gives are not always drawn. The list shows a part of the results. Rule as the data show it: active = 1.25 or more and inactive = the rest. Many values rest on one well or one pass, so single values are uncertain.

This assay concerns Kcc2-LUC knock-in mouse primary cortical neurons (Kcc2 promoter reporter). The assay is described as follows: Kcc2 promoter-driven luciferase activity relative to vehicle control (fold of vehicle (ratio)); higher = stronger Kcc2 promoter activation (Kcc2 expression enhancer). The conditions noted are these: 100 nM; 48 h.
`NC(N)=N/N=C(\c1ccc(Cl)cc1)C1CC1`: the “Kcc2 promoter-driven luciferase activity” value is inactive: 0.39.
As for `CN1C(Cl)=NS(=O)(=O)c2ccccc21` [4H-1,2,4-Benzothiadiazine, 3-chloro-4-methyl-, 1,1-dioxide], the “Kcc2 promoter-driven luciferase activity” value is inactive: 1.17.
With `CCN(CCO)CCNc1ccc(C)c2sc3ccccc3c(=O)c12` [Thioxanthen-9-one,hydrochloride], the “Kcc2 promoter-driven luciferase activity” value is inactive: 1.
With `COc1ccc(N=C2C(=Nc3ccc(OC)cc3)N(c3ccc(N(C)C)cc3)C(=S)N2c2ccc(OC)cc2)cc1`, the “Kcc2 promoter-driven luciferase activity” value was inactive: 1.01.
With `Clc1ccc(C(c2ccccc2Cl)C(Cl)Cl)cc1` (stereo not given) [Mitotane], the “Kcc2 promoter-driven luciferase activity” value was inactive: 0.9.
On to `CCN(CC)CCNc1ccc2nc(C)n3c4ccc(OC)cc4c(=O)c1c23`, for which the “Kcc2 promoter-driven luciferase activity” value was inactive: 0.87.
The value for `Cc1ccc(NC(=S)C#N)c(C)c1` [1-Cyano-N-(2,4-dimethylphenyl)methanethioamide] was active: 1.31.
On to `Cc1[nH]c(=O)[nH]c(=O)c1/C=C/C(=O)NC(CO)CC(C)C` (stereo not given), for which the “Kcc2 promoter-driven luciferase activity” value was inactive: 1.03.
As for `CO[C@H]1/C=C/O[C@@]2(C)Oc3c(C)c(O)c4c(O)c(cc(O)c4c3C2=O)NC(=O)/C(C)=C\C=C\[C@H](C)[C@H](O)[C@@H](C)[C@@H](O)[C@@H](C)[C@H](OC(C)=O)[C@@H]1C` [Rifamycin Sodium], the “Kcc2 promoter-driven luciferase activity” value was inactive: 0.84.
With `O=C(c1ccccc1)C1OC12C(=O)Nc1c(Cl)cc(Cl)cc12` (stereo not given), the “Kcc2 promoter-driven luciferase activity” value is inactive: 0.72.
For the compound `CCCCCCCCCCCCCCCCOCC(O)CO` (stereo not given) [Chimyl Alcohol], the “Kcc2 promoter-driven luciferase activity” value was inactive: 0.92.
In the case of `COC(=O)[C@@H]1c2cc3c(c(O)c2[C@@H](OC)C[C@@]1(C)O)C(=O)c1c(O)cc2c(c1C3=O)O[C@@H]1O[C@@]2(C)[C@H](O)[C@@H](N(C)C)[C@@H]1O` [Nogalamycin compound D] it was inactive: 0.966.
Turning to `O=c1oc2cc(O)ccc2c2oc3cc(O)ccc3c12` [Coumestrol], the “Kcc2 promoter-driven luciferase activity” value was inactive: 1.05.
Regarding `C=C1C(=O)C2=CC1CCC(=O)C1(C)CCC(OC(C)=O)C(C)(C)C1CC2O` (stereo not given) [Shikoccin], the “Kcc2 promoter-driven luciferase activity” value was inactive: 1.16.
Take `COc1cc(O)c2c(c1)C(=O)c1cc3c(c(O)c1C2=O)[C@@H](O[C@@H]1O[C@@H](C)[C@H](O)[C@@H](O)[C@H]1OC)[C@H](OC)[C@](C)(O)C3=O` [Steffimycin]: the “Kcc2 promoter-driven luciferase activity” value was inactive: 0.92.
Turning to `CCCCn1c2c(n(CCCC)c1=S)-c1c(n(CCCC)c(=S)n1CCCC)SSSS2`, the “Kcc2 promoter-driven luciferase activity” value is inactive: 0.01.
In the case of `N#CC(=C1C=CC(=NO)C=C1)c1ccc(Cl)cc1`, the “Kcc2 promoter-driven luciferase activity” value is inactive: 0.91.
In the case of `CC(C)N.CC(C)N.[Cl-].[Cl-].[OH-].[OH-].[Pt]` [Iproplatin] it was inactive: 0.82; in that of `CCC1CN2CCc3cc(OC)c(OC)cc3C2CC1CC1c2cc(OC)c(OC)cc2CCN1C(=O)C(Cc1c[nH]c2ccccc12)NC(=O)OC(C)(C)C` (stereo not given), active: 1.25.
With `C(=C/c1nc2ccccc2o1)/c1ccc2c(c1)OCO2` [2-[(Z)-2-(1,3-benzodioxol-5-yl)ethenyl]-1,3-benzoxazole], the “Kcc2 promoter-driven luciferase activity” value is inactive: 0.31.
Consider `CN1CCCC2C(c3ccccc3)C(C3=NCCCC3)C(c3ccccc3)CC21` (stereo not given) [Lobinaline, monohydrochloride], for which the “Kcc2 promoter-driven luciferase activity” value was inactive: 0.88.
On to `COc1ccc(NC(=O)CC(=O)N2N=C(C)C(/N=N/c3ccc(S(=O)(=O)c4ccc(/N=N/C5C(=O)N(C(=O)CC(=O)Nc6ccc(OC)cc6)N=C5C)cc4)cc3)C2=O)cc1` (stereo not given), for which the “Kcc2 promoter-driven luciferase activity” value was inactive: 1.17.
In the case of `Cc1cc(=O)c2c(O)c3c(O)cc(O)c4c5c(O)cc(O)c6c(O)c7c(=O)cc(C)c8c1c2c(c34)c(c65)c78` [Hypericin] it was inactive: 0.83.
For `COC1=C(N)C(=O)c2nc(-c3nc(C(=O)O)c(C)c(-c4ccc(OC)c(OC)c4O)c3N)ccc2C1=O` [Streptonigrin; Bruneomycin], the “Kcc2 promoter-driven luciferase activity” value is inactive: 0.786.
`Cc1nc(Nc2ccc(Cl)c(Cl)c2)sc1C(/C=C/c1ccc2c(c1)OCO2)=N/Nc1ccc([N+](=O)[O-])cc1[N+](=O)[O-]`: the “Kcc2 promoter-driven luciferase activity” value was inactive: 0.84.
The value for `CC(=O)OCc1c2ccccc2c(C)c2c1cc(F)c1ccccc12` [5-fluoro-7-hydroxymethyl 12-methylbenzanthracene acetate] was active: 1.36.
As for `Cc1c(Cl)cccc1NC(=O)c1cccc([N+](=O)[O-])c1O` [N-(3-Chloro-2-methylphenyl)-2-hydroxy-3-nitrobenzamide], the “Kcc2 promoter-driven luciferase activity” value was inactive: 0.84.
Take `CCCCOCc1cc(CN2CCN(C)CC2)c(O)c2ncccc12`: the “Kcc2 promoter-driven luciferase activity” value was inactive: 0.92.
`C=C1C(=O)O[C@@H]2/C=C(/C)C(=O)C[C@H]3OC(C)(C)O[C@]3(C)C[C@@H](OC(=O)/C(C)=C\C)[C@@H]12`: the “Kcc2 promoter-driven luciferase activity” value was inactive: 0.9.
In the case of `Nc1nc(SCCc2ccccc2)c2[nH]cnc2n1` [6-phenethylsulfanyl-7H-purin-2-amine] it was active: 1.27.
